Laboratory results reported in paper PMC5618205.
No constants are given. Whether binding was seen depends on the method and setting. In cells and extracts the contact can be indirect. Some binding calls cover weakened binding; strength is not graded here. Where a sequence is shown, tags or fusion partners need not be part of it.

Tests used:
[1] = target: T1, Elp1-HA (Elongator subunit Elp1, HA-tagged) (S. cerevisiae) (UniProt Q06706); assay: co-IP; anti-HA (3F10) immune precipitation of the HA-tagged Elongator subunit (Elp2-HA or Elp1-HA) from total yeast extracts of co-expressing strains; IPs probed with anti-c-Myc (9E10) for Kti12 variants
T1 sequence: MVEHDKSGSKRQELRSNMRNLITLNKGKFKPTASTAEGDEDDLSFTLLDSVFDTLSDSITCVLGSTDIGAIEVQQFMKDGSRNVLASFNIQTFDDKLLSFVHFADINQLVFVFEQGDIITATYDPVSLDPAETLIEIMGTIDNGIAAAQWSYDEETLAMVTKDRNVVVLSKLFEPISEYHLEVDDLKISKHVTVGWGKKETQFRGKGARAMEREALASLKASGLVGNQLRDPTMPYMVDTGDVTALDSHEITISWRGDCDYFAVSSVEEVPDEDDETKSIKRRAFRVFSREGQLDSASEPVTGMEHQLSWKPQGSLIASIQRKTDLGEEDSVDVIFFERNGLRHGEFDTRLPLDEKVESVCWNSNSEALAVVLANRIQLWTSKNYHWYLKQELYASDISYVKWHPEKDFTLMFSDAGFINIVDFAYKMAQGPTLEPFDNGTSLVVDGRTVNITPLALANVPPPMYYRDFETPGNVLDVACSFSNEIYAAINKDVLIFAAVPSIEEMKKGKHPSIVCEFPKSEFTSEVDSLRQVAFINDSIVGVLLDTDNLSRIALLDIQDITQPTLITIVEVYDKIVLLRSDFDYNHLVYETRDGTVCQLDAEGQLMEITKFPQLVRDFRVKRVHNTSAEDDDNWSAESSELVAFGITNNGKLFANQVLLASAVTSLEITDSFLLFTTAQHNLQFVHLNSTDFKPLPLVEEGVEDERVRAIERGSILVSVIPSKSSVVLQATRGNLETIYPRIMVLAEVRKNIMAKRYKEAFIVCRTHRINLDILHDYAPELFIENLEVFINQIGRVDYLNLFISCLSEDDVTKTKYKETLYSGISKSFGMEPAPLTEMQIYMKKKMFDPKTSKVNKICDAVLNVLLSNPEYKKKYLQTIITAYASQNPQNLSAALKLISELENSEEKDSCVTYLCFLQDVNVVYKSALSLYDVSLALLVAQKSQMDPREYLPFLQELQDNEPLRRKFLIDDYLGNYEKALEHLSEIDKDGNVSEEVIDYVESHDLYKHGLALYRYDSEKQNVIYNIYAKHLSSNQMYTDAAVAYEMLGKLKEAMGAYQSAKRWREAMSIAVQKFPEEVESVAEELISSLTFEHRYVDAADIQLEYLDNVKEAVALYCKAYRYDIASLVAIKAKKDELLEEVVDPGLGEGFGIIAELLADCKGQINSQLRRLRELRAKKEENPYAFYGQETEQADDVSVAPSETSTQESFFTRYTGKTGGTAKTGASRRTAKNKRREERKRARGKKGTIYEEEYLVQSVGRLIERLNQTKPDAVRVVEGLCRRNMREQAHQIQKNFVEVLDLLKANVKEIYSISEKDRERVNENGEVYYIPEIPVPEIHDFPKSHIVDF

[2] = target: T2, Elp2-HA (Elongator subunit Elp2, HA-tagged) (S. cerevisiae) (UniProt P42935); assay: as above
T2 sequence: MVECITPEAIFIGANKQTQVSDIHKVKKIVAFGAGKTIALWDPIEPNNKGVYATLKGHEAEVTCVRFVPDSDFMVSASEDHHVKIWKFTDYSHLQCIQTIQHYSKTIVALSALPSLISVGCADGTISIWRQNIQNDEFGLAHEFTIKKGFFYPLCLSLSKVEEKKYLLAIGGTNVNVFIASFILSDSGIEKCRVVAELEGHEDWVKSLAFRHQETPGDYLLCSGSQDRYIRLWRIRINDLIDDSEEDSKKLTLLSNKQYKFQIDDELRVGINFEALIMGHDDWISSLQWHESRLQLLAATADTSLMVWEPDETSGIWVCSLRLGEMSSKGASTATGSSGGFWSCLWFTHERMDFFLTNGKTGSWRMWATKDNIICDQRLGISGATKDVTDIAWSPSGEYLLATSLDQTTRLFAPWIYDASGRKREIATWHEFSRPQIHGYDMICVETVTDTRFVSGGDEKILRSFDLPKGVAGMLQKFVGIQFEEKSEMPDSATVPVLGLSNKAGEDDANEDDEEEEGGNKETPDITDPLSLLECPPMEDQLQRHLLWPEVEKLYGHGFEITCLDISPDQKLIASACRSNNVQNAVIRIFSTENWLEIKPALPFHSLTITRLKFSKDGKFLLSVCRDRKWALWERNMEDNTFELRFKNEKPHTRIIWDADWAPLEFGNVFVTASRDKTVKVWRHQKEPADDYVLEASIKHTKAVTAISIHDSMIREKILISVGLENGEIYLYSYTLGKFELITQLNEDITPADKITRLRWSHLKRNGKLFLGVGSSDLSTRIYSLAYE

B1: Kti12-c-Myc (wild-type Kti12, c-Myc-tagged) (protein, UniProt P34253 1-313)
chain: MPLVLFTGYPCSGKTTLAKHLVQLLQSKIDATPSLSKYSITYHSDESLGIKHSDYITSQDERKLRSEIISAVKRDLSKNKIVIVDSLNYIKGFRYQLHCEVKNLSTTFCVIQTLCPPETIFEWNKTSNPNPWEPELLNQLIQRYEEPNSSNRWDSPLFAILTPQDNITDYIDDICKVVFQTSKSAKNSGHNDPLSKGLQKPNSATVLKPASQSNFIQVLDIETSKIIKTIMNHIKSLTSIGGVSNGTRVIVSEGITDINDDGCFFVDLPIGNVVTLAQLQRLKRQFINFNKLRDIDQDRIGPLFADYLNKNLN
binding [1]: binds
binding [2]: binds
